Results published in publication PMC7819943, “Rice protein-binding microarrays: a tool to detect cis-acting elements near promoter regions in rice”.
Some of the results follow.

Target: T1, OsSMF1 (Oryza sativa, UniProt Q6ZLB0 1-436)
T1 sequence: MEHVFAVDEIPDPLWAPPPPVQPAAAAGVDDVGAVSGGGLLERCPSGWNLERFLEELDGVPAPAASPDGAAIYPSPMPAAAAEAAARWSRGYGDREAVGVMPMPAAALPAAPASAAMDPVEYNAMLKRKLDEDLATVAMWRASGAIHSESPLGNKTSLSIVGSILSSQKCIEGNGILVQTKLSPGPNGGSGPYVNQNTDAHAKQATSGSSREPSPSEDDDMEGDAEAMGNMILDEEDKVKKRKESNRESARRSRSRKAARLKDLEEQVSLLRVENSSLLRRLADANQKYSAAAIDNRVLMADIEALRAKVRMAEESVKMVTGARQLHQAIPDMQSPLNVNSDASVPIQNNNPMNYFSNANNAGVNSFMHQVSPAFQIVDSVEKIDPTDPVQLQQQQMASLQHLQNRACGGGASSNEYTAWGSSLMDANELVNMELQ
Assay: protein-binding microarray (RPBM); PBS, 2% BSA, 51.3 ng/ul salmon testes DNA, 50 uM zinc acetate, 200 nM TF, 25 C, 1 h; high values mean tight binding
Details: protein: recombinant; tags: N-terminal polyhistidine and DsRed monomer fusion (pET32a); chain copies: 2; label: CyDye5-dUTP incorporated in the synthesized complementary strand; 3' TTTTT single-stranded linker to array surface; dsDNA, one strand shown
Procedure, shortened: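 Transcription factors were each fused at the N-terminus to a polyhistidine tag plus DsRed and expressed in E. coli BL21-CodonPlus before Ni–NTA purification. Binding to a double-stranded custom Agilent array was carried out with 200 nM protein at 25 °C for 1 h in PBS, 2% BSA, salmon testes DNA and 50 µM zinc acetate. The binding signal is per-feature fluorescence intensity, in arbitrary units, on an Axon 4000B scanner.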

Row | Sequence | binding signal
1 | CATATCTATCTTACGTGGACGCCACAAGGTTCTATAGGCTCGGAGTCACCTAGTGCAG | 8710 fluorescence intensity (a.u.)
2 | GGCATTTCTTAGAAATTTCATATGATCTAACAAATTGTTACGGAGTCACCTAGTGCAG | 3190 fluorescence intensity (a.u.)
3 | TACAGGCCCTGTATACCTGGATGGGCCTACATTGAAGCCCCGGAGTCACCTAGTGCAG | 4000 fluorescence intensity (a.u.)
4 | TCTAGCTGATTCACGGAAAATCAATCAAATGTGTATGCTCCGGAGTCACCTAGTGCAG | 3360 fluorescence intensity (a.u.)
5 | CATAGATGGGCTCATCAGTAATGCTCCATATCAACACGACCGGAGTCACCTAGTGCAG | 35200 fluorescence intensity (a.u.)
6 | CGACTCGACGTCGTCGTCATTCTTCATGGCTGGGTGGGTTCGGAGTCACCTAGTGCAG | 3670 fluorescence intensity (a.u.)
7 | TACCAGTGTCACGCAGTGACGCAATGGATCATGCTATCCACGGAGTCACCTAGTGCAG | 4450 fluorescence intensity (a.u.)
8 | TGAGTGAATACACAGTACTATGACGACGATAAGGTTGGGGCGGAGTCACCTAGTGCAG | 32700 fluorescence intensity (a.u.)
9 | TTCTATCTGTACGTGTACATGACAGTGAGATTTTATTAAACGGAGTCACCTAGTGCAG | 5140 fluorescence intensity (a.u.)
10 | GGTCCATATGTGGAGCCCACATGTCAGGGACCCGTGTGGCCGGAGTCACCTAGTGCAG | 3460 fluorescence intensity (a.u.)
11 | GACAATTACTTAGTCCTCACCTACCGTCGACCTCACACGTCGGAGTCACCTAGTGCAG | 3220 fluorescence intensity (a.u.)
12 | ATCATTTGCTTTTGTTGCAAATGACGTGCAAAACTACAAACGGAGTCACCTAGTGCAG | 4790 fluorescence intensity (a.u.)
13 | GCCGGCTCGATCTACGAGCCGGCCGTGTTTCGAAATAACCCGGAGTCACCTAGTGCAG | 13900 fluorescence intensity (a.u.)
14 | AGATTAGGGACTAAATTTTAGTCCATGTCACATCGAATGTCGGAGTCACCTAGTGCAG | 3920 fluorescence intensity (a.u.)
15 | ATCATGTGAGATCTTGTTGTAAAGATTTAATTCTTACAAACGGAGTCACCTAGTGCAG | 19300 fluorescence intensity (a.u.)
16 | ATTGCCAGTTACAGCTATCACACGTACTTATACCTCCGCCCGGAGTCACCTAGTGCAG | 4550 fluorescence intensity (a.u.)
17 | CCATTCGCTCGTGCTCTCGTTGGCGTGGAACAACAGGTGCCGGAGTCACCTAGTGCAG | 3420 fluorescence intensity (a.u.)
18 | GGCCCACTCAACCACGTTTCAGTTACTCCTTAATGACCCACGGAGTCACCTAGTGCAG | 3860 fluorescence intensity (a.u.)
19 | TGTTGCTCGGCCAAACGTACACACAGTTCGTTATATATCGCGGAGTCACCTAGTGCAG | 12100 fluorescence intensity (a.u.)
20 | TAAGTTTCTAAGGAAATGACCATCATAATGATGTTGACATCGGAGTCACCTAGTGCAG | 3220 fluorescence intensity (a.u.)
21 | CACCCGCACCCGCCCGCACGGCCGCGCCCGCGTCACCACCCGGAGTCACCTAGTGCAG | 6150 fluorescence intensity (a.u.)

Row | Sequence | binding signal
22 | AGAATTTGTTCGTCACCCATATATCGGCGTCATGACCTCGCGGAGTCACCTAGTGCAG | 3510 fluorescence intensity (a.u.)
23 | GTCTCCCTGCGACGCTGGCGCCATCGCGTCACCGTCTCCGCGGAGTCACCTAGTGCAG | 7170 fluorescence intensity (a.u.)
24 | CAGTTGAGGCTAGGTGGTGTTTATTGACACTATCAAAATTCGGAGTCACCTAGTGCAG | 3230 fluorescence intensity (a.u.)
25 | CCTGCTTAATTATTGCCTAGGATGCTCTGTCATCCTAATTCGGAGTCACCTAGTGCAG | 3250 fluorescence intensity (a.u.)
26 | GTCATGGAACTCGTGGCGTCATCACATCAGCAAATCCAAGCGGAGTCACCTAGTGCAG | 6520 fluorescence intensity (a.u.)
27 | GTTTTGTATGTAATTATTGCTAGTGGATGATGATGTATCACGGAGTCACCTAGTGCAG | 3770 fluorescence intensity (a.u.)
28 | CCAGCCCAGCTGTCCACGTCAGCCATGGCCCTTCTGGTGGCGGAGTCACCTAGTGCAG | 23800 fluorescence intensity (a.u.)
29 | TGAGGGCACAGTGCTCTCGAGCATGTCTGCCACGTAGGATCGGAGTCACCTAGTGCAG | 23800 fluorescence intensity (a.u.)
30 | TATGTGGATAATTGCAGTTCATCCACGTATGACAACTGGGCGGAGTCACCTAGTGCAG | 8410 fluorescence intensity (a.u.)
31 | ATTTTGATCCACCAGTTTACACGCCAGGAATTAAACCATGCGGAGTCACCTAGTGCAG | 3670 fluorescence intensity (a.u.)
32 | TGGACTTGGTCAGGGACTTTGTGCGTCAGAATTTCTATGCCGGAGTCACCTAGTGCAG | 3600 fluorescence intensity (a.u.)
33 | TGCCAACGTAATAGACAGTACGGTACAGAACATGTCAAATCGGAGTCACCTAGTGCAG | 3670 fluorescence intensity (a.u.)
34 | CAGACGGTCGTCGTCACCGCGGCGAACGGCTCGTCGGTGGCGGAGTCACCTAGTGCAG | 4130 fluorescence intensity (a.u.)
35 | CCGTGGGACTTGTAGGGCTTGACGAGGGCGCCGGTGTGGGCGGAGTCACCTAGTGCAG | 3280 fluorescence intensity (a.u.)
36 | CAACGCCCTCCGTCGTCACGAAGTAATCGGCGCCGTCTTTCGGAGTCACCTAGTGCAG | 4620 fluorescence intensity (a.u.)
37 | TTTGAAACCGAATATATGTTGTGGATGCGTCACGGCCCACCGGAGTCACCTAGTGCAG | 8350 fluorescence intensity (a.u.)
38 | CGCCGGTCTTCTGGCTTACGCGGCTAAGGAATATCTATGCCGGAGTCACCTAGTGCAG | 3360 fluorescence intensity (a.u.)
39 | CATGCTTAACAGCGTAATTAAGCTTGCATTGCTAATCCTGCGGAGTCACCTAGTGCAG | 3170 fluorescence intensity (a.u.)
40 | TTTAGTAAATTACCTGCTCTTGAAATTGTTGGTTTCAGGCCGGAGTCACCTAGTGCAG | 7840 fluorescence intensity (a.u.)
41 | TTCGTGCCCAACCGCACCGCACGTCGTCCGTCCCCACCCCCGGAGTCACCTAGTGCAG | 4000 fluorescence intensity (a.u.)
42 | TTTATTTTGGTGACTAAGATGCCACATTAGTGAAATCAGGCGGAGTCACCTAGTGCAG | 3440 fluorescence intensity (a.u.)

From entry 39 up to 41, as listed above:
Row | Sequence | binding signal
39 | CATGCTTAACAGCGTAATTAAGCTTGCATTGCTAATCCTGCGGAGTCACCTAGTGCAG | 3170 fluorescence intensity (a.u.)
40 | TTTAGTAAATTACCTGCTCTTGAAATTGTTGGTTTCAGGCCGGAGTCACCTAGTGCAG | 7840 fluorescence intensity (a.u.)
41 | TTCGTGCCCAACCGCACCGCACGTCGTCCGTCCCCACCCCCGGAGTCACCTAGTGCAG | 4000 fluorescence intensity (a.u.)
